Assay results: patent US9758785B2, “miR-520 microRNAs sensitize cancers to platinum-based therapy” (BAYLOR COLLEGE OF MEDICINE, priority 2012, dated 2017)
Some of these results come from one statement about several compounds together.

Test system: ovarian cancer cell lines
Assay: Cisplatin IC50 in multiple ovarian cancer cell lines
Assay type: cell-based, human
Conditions: p<0.01
Protocol: Established ovarian cancer cell lines were obtained from the ATCC (OVCAR8, OVCAR5) and the University of Texas M.D. Anderson Cancer Center (HEYA8, SKOV3ip1). All cell lines were maintained at 37° C. in RPMI 1640 media (Invitrogen, Carlsbad, Calif.) supplemented with 10% fetal bovine serums (Hyclone, Logan, Utah) and 1% penicillin/streptomycin (Gibco, Carlsbad, Calif.). MicroRNA mimics and mimic controls (Dharmacon, Lafayette, Colo.) were transiently transfected into actively growing cultures using Lipofectamine 2000 (Invitrogen, Carlsbad, Calif.). After a 24-hour incubation, transfected cultures were washed, passaged and seeded into 96 well plates. Proliferation and apoptosis were measured at 72, 96 and 120 hours after transfection using standard assays (Cell Titer 96 Aqueous One; Caspase Glo 3/7; Promega, Madison, Wis.). pLemiR expression vectors (Open Biosystems/Thermo, Huntsville, Ala.) were prepared according to manufacturer's instructions and transfected into cells using Fugene 6 (Roche, Indianapolis, Ind.). Following transfection, stable clones were selected using puromycin (Invitrogen) at doses optimized for each line. […] Viability was assessed across a clinically relevant range of cisplatin concentrations using an MTS assay (Promega). […]

B1: hsa-mir-520h MI0003175 (nucleic acid, listed as Homo sapiens)
chain: UCCCAUGCUGUGACCCUCUAGAGGAAGCACUUUCUGUUUGUUGUCUGAGAAAAAACAAAGUGCUUCCCUUUAGAGUUACUGUUUGGGA
modifications: expressed or natural sequence
notes: synthetic mimic or stably expressed from pLemiR vector; written miR-520g/h interchangeably
In the case of B1, the “Decrease of IC50 for cisplatin” value is reported as ≤ 3 fold.

B2: hsa-mir-520a MI0003149 (nucleic acid, listed as Homo sapiens)
chain: CUCAGGCUGUGACCCUCCAGAGGGAAGUACUUUCUGUUGUCUGAGAGAAAAGAAAGUGCUUCCCUUUGGACUGUUUCGGUUUGAG
modifications: expressed or natural sequence
notes: seed 5'aagugcu; mimic or stably expressed
In the case of B2, the “Decrease of IC50 for cisplatin” value is reported as ≤ 3 fold.
